Test results from patent EP1321493A1, “Method for enhancing the solubility of a colorant” (DSM N.V., priority 2001, dated 2003).

Test: Stain testing (wash test for residual staining / washability)
Design: key: 0 = excellent washability; 1 = very good washability; 2 = good washability; 3 = medium washability; 4 = slight washability; 5 = no washability
Settings: Comparative Experiment, pure dye; saturated solution, 100 mg dye in 1 ml of water; 4 droplets, left overnight, running tap water for 10 minutes

Row | Compound | Staining result
1 | CCN(CC)c1ccc2c(-c3ccc(S(=O)(=O)[O-])cc3S(=O)(=O)[O-])c3ccc(=[N+](CC)CC)cc-3oc2c1.[Na+] [Acid Red 52] | 2
2 | CCN(CC)c1ccc(C(=C2C=CC(=[N+](CC)CC)C=C2)c2ccc(S(=O)(=O)[O-])cc2S(=O)(=O)[O-])cc1.[Na+] [Acid Blue 1] | 2
3 | CCN(Cc1cccc(S(=O)(=O)[O-])c1)c1ccc(C(=C2C=CC(=[N+](CC)Cc3cccc(S(=O)(=O)[O-])c3)C=C2)c2ccc(S(=O)(=O)[O-])cc2)cc1.[Na+].[Na+] [Acid Green 5] | 4
4 | CN(c1ccccc1)c1nc(Cl)nc(Nc2cc(S(=O)(=O)[O-])cc3cc(S(=O)(=O)[O-])c(N=Nc4ccccc4S(=O)(=O)[O-])c(O)c23)n1.[Na+].[Na+].[Na+] [Reactive Red 24] | 4
5 | Acid Yellow 17 | 2
6 | Nc1c(N=Nc2ccc(S(=O)(=O)CCOS(=O)(=O)[O-])cc2)c(S(=O)(=O)[O-])cc2cc(S(=O)(=O)[O-])c(N=Nc3ccc(S(=O)(=O)CCOS(=O)(=O)[O-])cc3)c(O)c12.[Na+].[Na+].[Na+].[Na+] [Reactive Black 5] | 4
7 | CC1=C/C(=C(\c2ccc(N)c(S(=O)(=O)[O-])c2)c2ccc(N)c(S(=O)(=O)O)c2)C=C(S(=O)(=O)[O-])C1=N.[Na+].[Na+] [Acid Violet 19] | 3
8 | O=C1/C(=C2\Nc3ccc(S(=O)(=O)[O-])cc3C2=O)Nc2ccc(S(=O)(=O)[O-])cc21.[Na+].[Na+] [Acid Blue 74] | 4
9 | Reactive Blue 4 | 4
